This is one part of the list.
What was measured:
Assay in all cases: log2 fold change, soluble protein after heating vs DMSO (PISA); higher = thermal stabilisation; K562 lysate, 10 uM; active = over 0.2 and 3.5 SD of the protein, either way, in both replicates (recomputed)
erlotinib = compound: C#Cc1cccc(Nc2ncnc3cc(OCCOC)c(OCCOC)cc23)c1 [erlotinib]
Outline: (§1)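 The values are log-two fold changes in thermal stability compared with solvent controls and come from duplicates. They were obtained by TMTpro 16plex LC-MS/MS, with channel sums equalised, on the supernatant after 21,000xg for 90 min. That supernatant came from crude K562 extract at 1 mg/mL protein treated with 10 μM compound for 30 min, heated for 3 min across 48°C-58°C, pooled and brought to 0.5% NP-40 at 4°C.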

Chains of the proteins cited; added tags and fusions are not shown. Lines headed by an entry give the natural chain unless they say otherwise; changes in a name come on top.
UniProt Q99805: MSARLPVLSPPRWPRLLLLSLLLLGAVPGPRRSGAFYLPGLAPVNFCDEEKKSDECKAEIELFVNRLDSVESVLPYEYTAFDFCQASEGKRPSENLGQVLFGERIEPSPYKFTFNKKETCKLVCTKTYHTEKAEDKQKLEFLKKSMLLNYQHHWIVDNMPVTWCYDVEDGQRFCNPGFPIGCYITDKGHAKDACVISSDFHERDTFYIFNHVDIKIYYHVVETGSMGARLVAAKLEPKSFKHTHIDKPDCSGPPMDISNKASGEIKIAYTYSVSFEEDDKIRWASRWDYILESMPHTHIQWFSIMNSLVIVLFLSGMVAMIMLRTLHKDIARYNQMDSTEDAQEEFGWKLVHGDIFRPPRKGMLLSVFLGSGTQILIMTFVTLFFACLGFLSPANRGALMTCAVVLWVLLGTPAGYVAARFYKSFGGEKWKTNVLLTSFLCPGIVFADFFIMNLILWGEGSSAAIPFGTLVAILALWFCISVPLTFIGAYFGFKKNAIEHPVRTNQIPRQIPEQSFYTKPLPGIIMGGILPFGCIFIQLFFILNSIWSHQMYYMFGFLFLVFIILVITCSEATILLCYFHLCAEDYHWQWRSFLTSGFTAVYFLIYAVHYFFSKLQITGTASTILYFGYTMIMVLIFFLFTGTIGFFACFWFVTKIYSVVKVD
UniProt Q9P016: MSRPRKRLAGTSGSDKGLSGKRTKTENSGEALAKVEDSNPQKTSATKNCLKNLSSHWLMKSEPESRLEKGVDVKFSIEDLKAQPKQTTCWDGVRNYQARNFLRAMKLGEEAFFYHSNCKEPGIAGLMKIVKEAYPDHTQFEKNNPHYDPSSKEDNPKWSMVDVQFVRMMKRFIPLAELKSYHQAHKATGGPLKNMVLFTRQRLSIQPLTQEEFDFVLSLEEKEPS
UniProt Q9BVW5: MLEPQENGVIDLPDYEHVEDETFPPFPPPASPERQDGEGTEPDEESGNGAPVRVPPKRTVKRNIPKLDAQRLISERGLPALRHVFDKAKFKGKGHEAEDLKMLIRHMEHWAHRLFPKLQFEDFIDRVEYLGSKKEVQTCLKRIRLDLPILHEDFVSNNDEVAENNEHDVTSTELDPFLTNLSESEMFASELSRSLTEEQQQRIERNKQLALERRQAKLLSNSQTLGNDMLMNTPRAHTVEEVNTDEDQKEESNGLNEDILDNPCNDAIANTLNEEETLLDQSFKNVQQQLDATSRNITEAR
UniProt Q9Y5J9: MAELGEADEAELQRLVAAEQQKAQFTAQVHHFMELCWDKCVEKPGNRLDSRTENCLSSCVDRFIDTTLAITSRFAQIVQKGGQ
UniProt Q03167: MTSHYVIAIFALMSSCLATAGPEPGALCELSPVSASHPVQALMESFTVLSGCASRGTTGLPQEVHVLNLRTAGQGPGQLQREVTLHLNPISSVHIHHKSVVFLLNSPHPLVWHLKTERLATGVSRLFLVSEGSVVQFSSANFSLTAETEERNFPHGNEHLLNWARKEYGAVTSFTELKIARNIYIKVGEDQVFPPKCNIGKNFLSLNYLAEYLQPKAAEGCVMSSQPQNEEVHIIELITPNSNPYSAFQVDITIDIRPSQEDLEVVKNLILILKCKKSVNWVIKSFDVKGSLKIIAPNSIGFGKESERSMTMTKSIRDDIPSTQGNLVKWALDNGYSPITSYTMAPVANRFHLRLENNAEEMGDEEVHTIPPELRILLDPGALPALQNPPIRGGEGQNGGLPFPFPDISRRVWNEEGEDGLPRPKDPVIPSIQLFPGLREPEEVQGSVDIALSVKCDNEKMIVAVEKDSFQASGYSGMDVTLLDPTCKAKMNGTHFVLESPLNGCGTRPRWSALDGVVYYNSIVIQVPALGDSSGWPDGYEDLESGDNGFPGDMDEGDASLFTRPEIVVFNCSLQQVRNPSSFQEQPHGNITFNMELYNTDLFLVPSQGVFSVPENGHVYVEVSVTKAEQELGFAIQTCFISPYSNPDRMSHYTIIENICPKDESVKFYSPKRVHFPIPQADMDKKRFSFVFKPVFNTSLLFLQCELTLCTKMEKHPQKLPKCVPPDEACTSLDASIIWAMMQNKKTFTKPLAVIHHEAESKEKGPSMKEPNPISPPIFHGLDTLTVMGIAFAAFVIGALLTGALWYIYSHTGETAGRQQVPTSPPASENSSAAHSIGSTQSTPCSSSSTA
UniProt P17152: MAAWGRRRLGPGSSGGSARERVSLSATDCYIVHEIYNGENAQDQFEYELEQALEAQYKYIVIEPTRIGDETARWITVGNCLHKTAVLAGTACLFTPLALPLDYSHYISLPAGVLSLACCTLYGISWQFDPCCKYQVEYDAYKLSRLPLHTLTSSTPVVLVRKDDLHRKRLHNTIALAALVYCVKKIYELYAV
UniProt Q8WUH2: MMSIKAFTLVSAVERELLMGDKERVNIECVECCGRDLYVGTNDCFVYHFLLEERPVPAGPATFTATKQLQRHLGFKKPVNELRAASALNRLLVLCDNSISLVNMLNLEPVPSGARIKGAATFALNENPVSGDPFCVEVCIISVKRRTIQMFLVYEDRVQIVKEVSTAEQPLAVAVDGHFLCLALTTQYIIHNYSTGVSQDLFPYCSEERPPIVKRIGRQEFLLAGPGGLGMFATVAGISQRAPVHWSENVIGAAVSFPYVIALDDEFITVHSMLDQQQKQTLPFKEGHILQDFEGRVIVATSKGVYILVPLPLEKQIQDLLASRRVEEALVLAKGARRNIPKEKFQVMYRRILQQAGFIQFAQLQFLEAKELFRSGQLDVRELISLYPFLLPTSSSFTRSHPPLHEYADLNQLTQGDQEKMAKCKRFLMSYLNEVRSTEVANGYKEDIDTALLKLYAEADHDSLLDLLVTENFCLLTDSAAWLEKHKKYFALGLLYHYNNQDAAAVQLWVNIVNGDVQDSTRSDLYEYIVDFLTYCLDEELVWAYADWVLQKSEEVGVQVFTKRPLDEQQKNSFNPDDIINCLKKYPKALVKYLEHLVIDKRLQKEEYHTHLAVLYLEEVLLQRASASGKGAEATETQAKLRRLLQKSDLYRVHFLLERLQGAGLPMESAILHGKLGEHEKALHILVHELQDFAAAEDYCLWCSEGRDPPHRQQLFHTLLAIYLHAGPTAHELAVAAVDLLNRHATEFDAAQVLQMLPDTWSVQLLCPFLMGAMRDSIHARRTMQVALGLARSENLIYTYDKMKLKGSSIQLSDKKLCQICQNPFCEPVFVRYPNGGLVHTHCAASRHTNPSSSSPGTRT
UniProt Q86UE8, whole entry, looked up: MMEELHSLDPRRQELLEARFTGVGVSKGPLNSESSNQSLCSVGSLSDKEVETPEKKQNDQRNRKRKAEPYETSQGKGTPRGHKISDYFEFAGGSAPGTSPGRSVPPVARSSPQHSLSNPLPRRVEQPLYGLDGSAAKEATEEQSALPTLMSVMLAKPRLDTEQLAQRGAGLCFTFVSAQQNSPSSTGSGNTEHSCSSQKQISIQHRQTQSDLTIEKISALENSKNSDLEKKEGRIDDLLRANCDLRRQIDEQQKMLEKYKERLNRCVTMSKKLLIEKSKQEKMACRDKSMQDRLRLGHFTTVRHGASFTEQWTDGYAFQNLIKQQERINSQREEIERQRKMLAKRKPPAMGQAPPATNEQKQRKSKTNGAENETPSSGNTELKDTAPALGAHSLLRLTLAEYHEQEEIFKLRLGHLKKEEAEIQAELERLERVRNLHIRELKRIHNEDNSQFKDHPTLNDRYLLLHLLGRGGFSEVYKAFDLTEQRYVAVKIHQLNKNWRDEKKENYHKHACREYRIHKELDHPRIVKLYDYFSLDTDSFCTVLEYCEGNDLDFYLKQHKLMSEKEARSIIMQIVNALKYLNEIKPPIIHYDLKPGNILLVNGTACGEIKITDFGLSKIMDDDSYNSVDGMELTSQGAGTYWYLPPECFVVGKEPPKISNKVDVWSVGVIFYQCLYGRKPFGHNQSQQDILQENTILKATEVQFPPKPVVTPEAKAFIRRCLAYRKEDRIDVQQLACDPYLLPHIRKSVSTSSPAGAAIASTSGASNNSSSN
UniProt Q9HD45: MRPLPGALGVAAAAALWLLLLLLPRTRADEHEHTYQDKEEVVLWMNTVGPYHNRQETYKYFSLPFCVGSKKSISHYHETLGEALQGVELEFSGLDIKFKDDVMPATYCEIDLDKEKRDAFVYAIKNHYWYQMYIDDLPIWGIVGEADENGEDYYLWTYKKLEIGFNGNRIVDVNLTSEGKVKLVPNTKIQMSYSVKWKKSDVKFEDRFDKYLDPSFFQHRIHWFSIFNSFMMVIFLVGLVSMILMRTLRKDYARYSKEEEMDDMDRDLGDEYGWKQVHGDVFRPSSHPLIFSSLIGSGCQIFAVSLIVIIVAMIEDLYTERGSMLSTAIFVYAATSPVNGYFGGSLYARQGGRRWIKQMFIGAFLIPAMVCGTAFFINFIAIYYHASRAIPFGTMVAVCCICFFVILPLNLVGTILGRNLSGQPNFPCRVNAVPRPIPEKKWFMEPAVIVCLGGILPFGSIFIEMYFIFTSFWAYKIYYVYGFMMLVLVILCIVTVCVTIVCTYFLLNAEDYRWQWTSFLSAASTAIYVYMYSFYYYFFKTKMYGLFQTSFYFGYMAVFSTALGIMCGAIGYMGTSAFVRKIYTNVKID
UniProt Q5U3C3: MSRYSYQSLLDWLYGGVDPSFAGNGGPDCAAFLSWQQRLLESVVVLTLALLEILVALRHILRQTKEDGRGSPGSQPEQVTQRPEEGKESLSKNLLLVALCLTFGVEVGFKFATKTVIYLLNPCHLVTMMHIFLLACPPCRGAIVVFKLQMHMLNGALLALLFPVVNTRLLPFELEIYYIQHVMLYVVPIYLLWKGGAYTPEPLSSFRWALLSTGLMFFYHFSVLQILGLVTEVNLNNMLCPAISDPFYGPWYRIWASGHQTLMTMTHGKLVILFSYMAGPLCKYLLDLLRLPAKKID
UniProt Q96DC7: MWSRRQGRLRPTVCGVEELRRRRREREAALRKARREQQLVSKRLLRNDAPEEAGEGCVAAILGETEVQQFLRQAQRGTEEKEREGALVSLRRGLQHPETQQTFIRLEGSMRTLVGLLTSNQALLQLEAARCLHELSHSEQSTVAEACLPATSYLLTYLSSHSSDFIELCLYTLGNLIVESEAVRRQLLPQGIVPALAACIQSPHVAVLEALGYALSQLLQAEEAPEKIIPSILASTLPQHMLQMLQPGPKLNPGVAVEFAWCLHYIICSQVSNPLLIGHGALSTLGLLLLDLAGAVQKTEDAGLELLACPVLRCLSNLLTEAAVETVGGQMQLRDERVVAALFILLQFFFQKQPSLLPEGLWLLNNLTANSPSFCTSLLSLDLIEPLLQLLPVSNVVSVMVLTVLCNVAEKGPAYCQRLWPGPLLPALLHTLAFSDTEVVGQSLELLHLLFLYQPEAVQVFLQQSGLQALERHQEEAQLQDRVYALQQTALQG
UniProt Q01085: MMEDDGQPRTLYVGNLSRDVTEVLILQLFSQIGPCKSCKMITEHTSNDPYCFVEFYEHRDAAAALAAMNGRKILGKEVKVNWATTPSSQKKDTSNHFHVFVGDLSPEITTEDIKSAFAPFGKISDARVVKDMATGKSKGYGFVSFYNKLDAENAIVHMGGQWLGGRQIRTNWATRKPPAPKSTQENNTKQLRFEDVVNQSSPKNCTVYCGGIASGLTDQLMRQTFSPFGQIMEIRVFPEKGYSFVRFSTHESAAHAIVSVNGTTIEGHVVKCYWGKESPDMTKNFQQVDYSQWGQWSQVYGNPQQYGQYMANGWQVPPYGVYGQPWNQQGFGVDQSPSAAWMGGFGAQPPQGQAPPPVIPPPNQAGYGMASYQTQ
UniProt O43493: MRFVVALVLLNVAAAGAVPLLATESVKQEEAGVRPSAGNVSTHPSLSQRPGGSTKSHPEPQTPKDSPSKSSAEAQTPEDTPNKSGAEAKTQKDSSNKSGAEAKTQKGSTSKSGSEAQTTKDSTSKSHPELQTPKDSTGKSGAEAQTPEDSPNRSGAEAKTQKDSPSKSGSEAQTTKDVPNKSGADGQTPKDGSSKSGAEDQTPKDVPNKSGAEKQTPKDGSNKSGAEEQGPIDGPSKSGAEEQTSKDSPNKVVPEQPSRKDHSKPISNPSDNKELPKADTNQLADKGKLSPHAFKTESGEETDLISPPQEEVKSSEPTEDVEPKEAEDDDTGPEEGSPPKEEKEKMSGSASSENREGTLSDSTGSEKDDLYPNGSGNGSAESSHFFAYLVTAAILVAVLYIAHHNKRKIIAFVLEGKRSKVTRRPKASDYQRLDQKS
UniProt O14925: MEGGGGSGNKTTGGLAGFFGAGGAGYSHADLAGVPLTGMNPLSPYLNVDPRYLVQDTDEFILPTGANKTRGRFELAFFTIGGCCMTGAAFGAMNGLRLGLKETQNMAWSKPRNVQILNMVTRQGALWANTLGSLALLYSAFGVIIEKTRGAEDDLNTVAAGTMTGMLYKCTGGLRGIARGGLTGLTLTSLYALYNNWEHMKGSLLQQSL

[1] = compound: C/C(=N\NC(=O)C1=CC(=CC=C1)S(=O)(=O)N2CCOCC2)/C3=C(C=CC(=C3)Cl)O
Outline: as §1

[2] = compound: C1=CC(=CC=C1C2=NC3=C(N2)C=C(C=C3)C(=O)N)OC4=CC=C(C=C4)Cl
Outline: as §1

[3] = compound: C1=CC2=C(C=CC(=C2)/C=C\3/C(=O)NC(=NCC4=CC=CS4)S3)N=C1
Outline: as §1

[4] = compound: C1=CC2=NC=CN=C2C=C1/C=C/3\C(=O)NC(=O)S3
Outline: as §1

[5] = compound: C1=CC=C(C=C1)C2=NC(=C(N2)C3=CC=NC=C3)C4=CC(=C(C=C4)Cl)O
Outline: as §1

[6] = compound: C1=CC=C2C(=C1)C3=NNC4=CC=CC(=C43)C2=O
Outline: as §1

[7] = compound: C1CCN(C1)C(=O)NC2=CC=CC(=C2)NC3=NC=C(C(=N3)NCCC4=CN=CN4)Br
Outline: as §1

[8] = compound: C1CN(CCC1(CC2=CC=C(C=C2)Cl)N)C3=NC=NC4=C3C=CN4
Outline: as §1

IRAK-1-4 Inhibitor I = compound: C1COCCN1CCN2C3=CC=CC=C3N=C2NC(=O)C4=CC(=CC=C4)[N+](=O)[O-] [IRAK-1-4 Inhibitor I]
Outline: as §1

ibrutinib = compound: C=CC(=O)N1CCC[C@@H](n2nc(-c3ccc(Oc4ccccc4)cc3)c3c(N)ncnc32)C1 [ibrutinib]
Outline: as §1

[9] = compound: CC(=O)c1cnc2ccc(-c3cc(Cl)c(O)c(Cl)c3)nc2c1N[C@H]1CC[C@H](CN(C)C)CC1
Outline: as §1

ralimetinib = compound: CC(C)(C)Cn1c(N)nc2ccc(-c3[nH]c(C(C)(C)C)nc3-c3ccc(F)cc3)nc21 [ralimetinib]
Outline: as §1

[10] = compound: CC(C)(O)CC(=O)NCCn1ccc2ncnc(Nc3ccc(Oc4cccc(C(F)(F)F)c4)c(Cl)c3)c21
Outline: as §1

[11] = compound: CC(C)C1=C2N=C(C=C(N2N=C1)NCC3=CC=CC=C3)NCCCCCCN
Outline: as §1

[12] = compound: CC1=C(C(CC(=O)N1)C2=CC=C(C=C2)C(F)(F)F)C(=O)NC3=C(C=C4C(=C3)C=NN4)F
Outline: as §1

[13] = compound: CC1=C(C2=C(C=C1)C(=O)C3=CC=CC=C3N2CCCN)C
Outline: as §1

[14] = compound: CC1=C(C=C(C=C1)NC(=O)C2=CC(=CC=C2)C(C)(C)C#N)NC3=CC4=C(C=C3)N=CN(C4=O)C
Outline: as §1

[15] = compound: CC1=C(C=C(C=C1)NC(=O)C2=CC(=CC=C2)N(C)C)NC(=O)C3=CC=C(C=C3)O
Outline: as §1

[16] = compound: CC1=CC=C(C=C1)SC2=C3C=C(SC3=CN=C2)C(=O)N
Outline: as §1

Measured: log2 fold change

THOC6 (UniProt Q86W42)
inactive: erlotinib -0.023 | [1] -0.067 | [2] -0.027 | [3] 0.003 | [4] -0.035 | [5] -0.022 | [6] -0.036 | [7] -0.018 | [8] 0.027 | IRAK-1-4 Inhibitor I 0.007 | ibrutinib -0.048 | [9] -0.02 | ralimetinib -0.022 | [10] -0.027 | [11] -0.013 | [12] -0.026 | [13] 0.002 | [14] -0.022 | [15] 0 | [16] 0

TM9SF2 (UniProt Q99805)
inactive: erlotinib 0.051 | [1] 0.03 | [2] -0.041 | [3] -0.014 | [4] 0.02 | [5] -0.005 | [6] -0.013 | [7] 0 | [8] 0.028 | IRAK-1-4 Inhibitor I 0.011 | ibrutinib -0.015 | [9] 0.014 | ralimetinib 0.009 | [10] -0.026 | [11] -0.011 | [12] 0.026 | [13] 0.038 | [14] 0.054 | [15] -0.015 | [16] -0.012

THOC3 (UniProt Q96J01)
inactive: erlotinib 0.02 | [1] -0.028 | [2] -0.018 | [3] 0.019 | [4] 0.009 | [5] -0.009 | [6] -0.011 | [7] 0.012 | [8] 0.045 | IRAK-1-4 Inhibitor I -0.009 | ibrutinib -0.012 | [9] 0.021 | ralimetinib 0.021 | [10] 0.007 | [11] -0.056 | [12] -0.033 | [13] -0.002 | [14] -0.008 | [15] 0.005 | [16] -0.003

THYN1 (UniProt Q9P016)
inactive: erlotinib 0.016 | [1] -0.05 | [2] -0.017 | [3] 0.054 | [4] -0.052 | [5] 0 | [6] -0.007 | [7] 0.056 | [8] -0.01 | IRAK-1-4 Inhibitor I -0.06 | ibrutinib -0.07 | [9] -0.006 | ralimetinib -0.021 | [10] 0.025 | [11] 0.081 | [12] -0.005 | [13] 0.014 | [14] -0.038 | [15] -0.007 | [16] 0.022

TIPIN (UniProt Q9BVW5)
inactive: erlotinib -0.021 | [1] -0.012 | [2] 0.009 | [3] 0.03 | [4] 0.018 | [5] -0.024 | [6] 0.051 | [7] 0.036 | [8] 0.024 | IRAK-1-4 Inhibitor I -0.002 | ibrutinib -0.013 | [9] 0.021 | ralimetinib -0.011 | [10] 0.011 | [11] -0.003 | [12] -0.015 | [13] 0.051 | [14] -0.024 | [15] -0.042 | [16] -0.024

TIMM8B (UniProt Q9Y5J9)
inactive: erlotinib 0.016 | [1] -0.022 | [2] -0.012 | [3] 0.059 | [4] -0.033 | [5] -0.076 | [6] -0.058 | [7] -0.017 | [8] 0.096 | IRAK-1-4 Inhibitor I -0.024 | ibrutinib -0.091 | [9] -0.066 | ralimetinib 0.034 | [10] -0.007 | [11] -0.137 | [12] -0.119 | [13] -0.09 | [14] 0.071 | [15] 0.019 | [16] 0.066

TGFBR3 (UniProt Q03167)
inactive: erlotinib -0.037 | [1] -0.025 | [2] -0.001 | [3] -0.036 | [4] 0.031 | [5] 0 | [6] -0.066 | [7] 0.009 | [8] 0.01 | IRAK-1-4 Inhibitor I -0.047 | ibrutinib 0.047 | [9] 0.065 | ralimetinib 0.038 | [10] -0.033 | [11] -0.07 | [12] 0.016 | [13] -0.019 | [14] 0.06 | [15] -0.006 | [16] 0.038

TMEM11 (UniProt P17152)
inactive: erlotinib 0.021 | [1] 0.048 | [2] -0.051 | [3] 0.012 | [4] -0.005 | [5] -0.023 | [6] 0.021 | [7] -0.067 | [8] 0.033 | IRAK-1-4 Inhibitor I 0.145 | ibrutinib -0.022 | [9] 0.015 | ralimetinib 0.03 | [10] -0.058 | [11] -0.052 | [12] 0.037 | [13] 0.076 | [14] -0.107 | [15] -0.089 | [16] 0.057

TGFBRAP1 (UniProt Q8WUH2)
inactive: erlotinib 0.015 | [1] 0.057 | [2] -0.016 | [3] -0.002 | [4] -0.018 | [5] -0.02 | [6] -0.056 | [7] 0.023 | [8] 0.006 | IRAK-1-4 Inhibitor I -0.026 | ibrutinib 0.002 | [9] 0.022 | ralimetinib 0.011 | [10] 0.025 | [11] -0.014 | [12] 0.007 | [13] 0.015 | [14] -0.005 | [15] 0.009 | [16] -0.012

Two neighbouring records already listed, quoted:
TMEM11 (UniProt P17152)
inactive: erlotinib 0.021 | [1] 0.048 | [2] -0.051 | [3] 0.012 | [4] -0.005 | [5] -0.023 | [6] 0.021 | [7] -0.067 | [8] 0.033 | IRAK-1-4 Inhibitor I 0.145 | ibrutinib -0.022 | [9] 0.015 | ralimetinib 0.03 | [10] -0.058 | [11] -0.052 | [12] 0.037 | [13] 0.076 | [14] -0.107 | [15] -0.089 | [16] 0.057

TGFBRAP1 (UniProt Q8WUH2)
inactive: erlotinib 0.015 | [1] 0.057 | [2] -0.016 | [3] -0.002 | [4] -0.018 | [5] -0.02 | [6] -0.056 | [7] 0.023 | [8] 0.006 | IRAK-1-4 Inhibitor I -0.026 | ibrutinib 0.002 | [9] 0.022 | ralimetinib 0.011 | [10] 0.025 | [11] -0.014 | [12] 0.007 | [13] 0.015 | [14] -0.005 | [15] 0.009 | [16] -0.012

Carrying on.

TLK2 isoform 2 (UniProt Q86UE8)
inactive: erlotinib -0.071 | [1] -0.076 | [2] 0.054 | [3] -0.006 | [4] 0.014 | [5] 0.001 | [6] 0.171 | [7] -0.012 | [8] 0.021 | IRAK-1-4 Inhibitor I -0.058 | ibrutinib -0.021 | [9] 0.104 | ralimetinib 0.035 | [10] -0.018 | [11] 0.007 | [12] -0.009 | [13] 0.051 | [14] 0 | [15] 0.025 | [16] -0.055

TM9SF3 (UniProt Q9HD45)
inactive: erlotinib -0.002 | [1] -0.002 | [2] -0.031 | [3] 0.026 | [4] -0.001 | [5] -0.029 | [6] 0.022 | [7] -0.03 | [8] 0.027 | IRAK-1-4 Inhibitor I 0.018 | ibrutinib 0.009 | [9] 0.009 | ralimetinib -0.002 | [10] 0 | [11] -0.023 | [12] 0.09 | [13] 0.03 | [14] 0 | [15] -0.017 | [16] 0.006

TMEM164 (UniProt Q5U3C3)
inactive: erlotinib 0.067 | [1] -0.141 | [2] -0.009 | [3] -0.093 | [4] 0.104 | [5] -0.056 | [6] -0.211 | [7] -0.057 | [8] 0.153 | IRAK-1-4 Inhibitor I 0.094 | ibrutinib 0.053 | [9] -0.066 | ralimetinib -0.171 | [10] -0.252 | [11] -0.035 | [12] -0.184 | [13] -0.153 | [14] 0.255 | [15] 0.027 | [16] -0.061

TMCO6 isoform 2 (UniProt Q96DC7)
inactive: erlotinib -0.05 | [1] -0.199 | [2] 0.066 | [3] -0.165 | [4] -0.055 | [5] -0.021 | [6] -0.111 | [7] 0.064 | [8] 0.055 | IRAK-1-4 Inhibitor I -0.041 | ibrutinib 0.025 | [9] 0.06 | ralimetinib 0.004 | [10] -0.05 | [11] -0.016 | [12] 0.093 | [13] -0.049 | [14] 0.056 | [15] 0.02 | [16] 0.039

TIAL1 isoform 2 (UniProt Q01085)
inactive: erlotinib 0.015 | [1] -0.001 | [2] 0.023 | [3] -0.015 | [4] -0.019 | [5] -0.035 | [6] 0.059 | [7] 0 | [8] 0.017 | IRAK-1-4 Inhibitor I 0.058 | ibrutinib 0.018 | [9] -0.004 | ralimetinib -0.063 | [10] -0.001 | [11] -0.001 | [12] 0.049 | [13] 0.015 | [14] -0.167 | [15] -0.06 | [16] -0.012

TGOLN2 isoform 7 (UniProt O43493)
inactive: erlotinib -0.108 | [1] 0.007 | [2] 0 | [3] 0.022 | [4] -0.036 | [5] -0.021 | [6] 0.012 | [7] -0.025 | [8] 0.011 | IRAK-1-4 Inhibitor I 0.029 | ibrutinib -0.023 | [9] 0.013 | ralimetinib -0.065 | [10] -0.058 | [11] 0.003 | [12] 0.009 | [13] 0.005 | [14] -0.033 | [15] 0.051 | [16] -0.013

TIMM23 (UniProt O14925)
inactive: erlotinib -0.092 | [1] 0.065 | [2] -0.008 | [3] 0.001 | [4] -0.035 | [5] -0.011 | [6] 0.001 | [7] -0.099 | [8] 0.031 | IRAK-1-4 Inhibitor I 0.003 | ibrutinib -0.053 | [9] -0.029 | ralimetinib 0.008 | [10] -0.067 | [11] 0.026 | [12] -0.054 | [13] -0.008 | [14] 0.002 | [15] 0.012 | [16] -0.02

Reference: the supplement of paper PMC10849652
